Assay results: the supplement of paper PMC6078165

Tested on: BT20
Assay: relative JC-1 red fluorescence (viability) vs pre-drug, coculture with fibroblast (fraction); higher = more viable cancer cells
Conditions: 100 µM
Protocol: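 JC-1 labelled TNBC cells cocultured 1:1 (1,500 cells each) with CellTrace Violet stained primary or stromal fibroblasts in 384-well plates in FluoroBrite medium, treated with one of 42 anticancer drugs at 0.1, 1, 10 or 100 uM. JC-1 red fluorescence (mitochondrial integrity in cancer cells only) was read by plate reader every 8 h for 72 h. Values are normalised to each well's pre-drug value. The stock of one drug was tenfold lower, so its dose labels may be too high.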

O=C(CCCCCCC(=O)Nc1ccccc1)NO [Vorinostat]
relative JC-1 red fluorescence
Conditions	40 h	48 h	56 h	64 h	72 h
coculture fibroblast: C12385	–	0.545	0.499	0.472	0.46
coculture fibroblast: H6013	–	0.686	0.698	0.685	0.675
coculture fibroblast: H6019	–	0.595	0.584	0.59	0.598
coculture fibroblast: H6076	–	0.6138	0.594	0.589	0.576
coculture fibroblast: H6231	–	0.521	0.482	0.482	0.446
coculture fibroblast: HADF	–	0.821	0.776	0.768	0.722
coculture fibroblast: HCFa	–	0.655	0.654	0.654	0.64
coculture fibroblast: HCPF	–	0.548	0.487	0.484	0.452
coculture fibroblast: HHSteC	0.634	0.587	0.561	0.543	0.501
coculture fibroblast: HMF	0.622	0.558	0.516	0.496	0.468
coculture fibroblast: HPFa	0.652	0.609	0.595	0.595	0.569
coculture fibroblast: HUF	0.54	0.496	0.471	0.45	0.436
coculture fibroblast: Hs5	0.667	0.629	0.604	0.596	0.58
coculture fibroblast: Hs27A	0.845	0.833	0.864	0.848	0.81
coculture fibroblast: Hs343T	0.555	0.495	0.447	0.4185	0.384
coculture fibroblast: WS1	0.529	0.505	0.482	0.461	0.453

The reference is the same well before dosing, and untreated signal decays as well.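 Labels refer to human fibroblasts, largely primary: uterine (C12385, HUF), lung (H6013), bone (Hs27A), adrenal (HADF), skin (WS1), plus mammary HMF and breast cancer-associated Hs343T. Cancer lines are basal-like or mesenchymal-like triple-negative breast cancer. The paper counts as hits responses shifting over 3x the replicate standard deviation. The tissue of the other fibroblasts is not given here.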
